# In the supplement of paper PMC3334620:
# In all, about 33,000 sequences were measured (“E-score (-0.5 to 0.5)”: median about -0.0014, highest 2% from about 0.25 on). The list shows a part of the results.
# Target: T1, Cad1 (UniProt P24813)
# T1 sequence: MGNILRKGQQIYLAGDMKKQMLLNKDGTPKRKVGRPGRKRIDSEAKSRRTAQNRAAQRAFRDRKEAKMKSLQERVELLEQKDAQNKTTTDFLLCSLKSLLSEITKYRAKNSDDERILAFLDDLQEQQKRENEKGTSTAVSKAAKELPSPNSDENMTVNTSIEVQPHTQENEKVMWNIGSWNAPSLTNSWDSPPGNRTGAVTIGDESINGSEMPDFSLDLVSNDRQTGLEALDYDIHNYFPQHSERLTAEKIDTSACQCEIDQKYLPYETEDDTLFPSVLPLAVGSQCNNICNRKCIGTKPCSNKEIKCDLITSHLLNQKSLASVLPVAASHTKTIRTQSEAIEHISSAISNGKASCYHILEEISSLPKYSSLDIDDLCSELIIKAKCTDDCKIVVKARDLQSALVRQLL
# Assay: PBM E-score (8-mer binding enrichment) (E-score (-0.5 to 0.5)); higher = stronger / more preferred TF binding
# Conditions: protein concentration: 100 nM; construct: GST-full length
# How it was run: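 Universal all-10-mer Agilent arrays, double-stranded by primer extension on fresh or once-stripped slides, were probed with about 100-200 nM GST-tagged yeast transcription factors made by PURExpress. Fluorescent anti-GST detected bound protein, and masliner normalised the scans. E-scores from the Universal PBM Analysis Suite were given to each ungapped eight-base word pooled with its reverse complement.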
row,Sequence,PBM E-score
1,ATGCACGA,-0.0577
2,CTCAGGAC,0.0748
3,GACCGCAA,-0.0111
4,GCAACCTA,-0.0451
5,GCGGTTCA,-0.0678
6,CCCCCAAG,-0.289
7,AGCCGAAC,0.0145
8,CCAGCACG,-0.0818
9,ACATTCCT,-0.0818
10,CATCTCTA,-0.054
11,AAGAACCG,0.104
12,ACGAACAG,-0.0601
13,GCCAAAAA,0.122
14,ATAAACAC,0.15
15,CGCCGATC,-0.00182
16,TGGGACAA,0.00876
17,CGGTCGAA,-0.0909
18,GCATTAGC,-0.0978
19,CAGTCTGA,0.0314
20,GGACCTCC,-0.175
21,ATTCTCCC,0.115
22,AATAAGGC,0.0576
23,GAGAAATA,0.12
24,ATCCAGAA,-0.00538
25,ATCGCCTA,-0.124

# Another view of some results above:
row	Sequence	PBM E-score
15	CGCCGATC	-0.00182
16	TGGGACAA	0.00876
17	CGGTCGAA	-0.0909
18	GCATTAGC	-0.0978

# (next part)

row,Sequence,PBM E-score
1,GGGTACCA,-0.211
2,ACAGAGTA,-0.117
3,ATTAAGAA,0.127
4,CGGATTGC,0.151
5,CACTTCAC,-0.11
6,AGCGCAAC,0.0949
7,TCAAACAA,0.11
8,ATGTTCTG,-0.094
9,CCATTCCG,-0.119
10,AAGTCAAG,-0.179
11,CTTTGAAC,-0.0585
12,GCCTTTAC,-0.0688
13,AATACACT,0.158
14,GGTATTGA,0.0579
15,AGTGCTTA,0.152
16,CTTGCCAC,-0.096
17,GTTGGGCA,-0.00633
18,AGTGGGCC,-0.28
19,GGTCTATA,-0.0454
20,CTCCTATC,-0.0871
21,ATGCGGGA,0.0554
22,ATTTTAAA,0.207
23,GTGTAAAA,0.0903
24,AAGTAGGT,-0.0979
25,CCGGGGGC,-0.406

row,Sequence,PBM E-score
1,ACAGAGCT,-0.22
2,CCGTATAA,0.138
3,CAGTCAGA,-0.0538
4,TACCTTAA,-0.113
5,ACGTTTTA,0.115
6,GACTATAC,0.0805
7,CACCCCAA,-0.0609
8,CCCGTTTA,0.158
9,ACAAATAG,0.182
10,AAATCGTT,0.112
11,CCCTGCCA,-0.133
12,CCAGGCAG,-0.221
13,CCCAACCG,-0.169
14,AGGATTGG,-0.0802
15,AACCGCTC,-0.135
16,AGAGATCG,0.0688
17,AGAAGCAA,-0.0141
18,CACAAGTA,-0.0393
19,AATCCACT,-0.00921
20,GCCTCGCA,-0.155
21,CATGTAAG,0.129
22,CTAAGGCC,0.0544
23,ACGTGTCT,-0.0413
24,CCGAGGAA,0.0902
25,ACTGCAAG,-0.165

row,Sequence,PBM E-score
1,CTGCCAGC,-0.0309
2,CCAGAGTA,-0.11
3,TCTTAGAA,0.192
4,CACTTATA,0.0359
5,GGAGAGTA,-0.187
6,ACCATCGC,0.152
7,ACTTTTGA,-0.0408
8,CGACTTCA,0.0294
9,ACACACTG,0.104
10,ACAATACG,0.0611
11,AACATCCG,0.141
12,GTTGCTTA,0.261
13,AACTTTGC,0.0556
14,CGAGTTTA,-0.0253
15,CCACTTTA,-0.0449
16,CCAAATTA,0.107
17,AAACCGAA,-0.0175
18,CCCTAACG,0.0377
19,GCGTGTTA,0.0162
20,CAATGACC,-0.246
21,GCGTGATA,0.0363
22,ACACATAT,0.148
23,CACTAAGG,0.0116
24,CTGAGGTA,-0.046
25,ACTTCATA,-0.0903

row,Sequence,PBM E-score
1,ACAGTGCA,0.16
2,CACGGATA,0.22
3,AAAGTGCC,-0.203
4,GCTATTGA,-0.0494
5,CATTGTTC,0.118
6,AATAGCCG,-0.0148
7,ACGGTAGA,-0.211
8,AGACAACG,-0.0176
9,CGGATGAG,-0.0451
10,AAAAGAGA,0.0357
11,AATTATAC,0.172
12,ACCCATCG,-0.111
13,CCTACACA,-0.0437
14,ATGCCGGG,-0.164
15,TCAGCTGA,0.31
16,ATGAGCAG,0.0829
17,ACTTTGCG,0.0838
18,ACCATCCG,-0.081
19,CTAGTAAC,-0.101
20,GACAATAA,0.152
21,CGACACTC,0.0197
22,ATCCTCCG,-0.0633
23,ATCGTCGC,0.204
24,CAGCGCGG,0.112
25,CCTACGAA,-0.109

# For reference, part of the list above.
row,Sequence,PBM E-score
7,ACTTTTGA,-0.0408
8,CGACTTCA,0.0294
9,ACACACTG,0.104

# (next part)

row,Sequence,PBM E-score
1,GAAGGTCA,-0.195
2,CCGTTCAC,-0.094
3,ATTGATGG,0.132
4,CGACGGAG,-0.00272
5,CACCGGTG,-0.239
6,CGCATCGC,0.017
7,GAATCTCC,-0.0557
8,CCCTTCTC,-0.243
9,CTTGTGTA,0.134
10,CCGAAAGA,0.132
11,ACCTCCTC,-0.148
12,ATTCTTGG,0.0331
13,ATTAAACC,0.0795
14,CGGACGAA,0.274
15,ACGGGCCC,-0.129
16,GGACTTGA,-0.232
17,GGCCCACC,-0.116
18,AGACCCCT,-0.3
19,ATCAATGA,0.139
20,GAGGGGAA,-0.116
21,CGATTCTC,0.0405
22,ACGTACTA,0.0515
23,GCGCTCCA,0.0337
24,GACCCGCA,-0.0562
25,CCTACTCC,-0.163

row,Sequence,PBM E-score
1,CGCGCTCC,0.133
2,AACTCCGG,0.156
3,GAGTGCTA,-0.0874
4,ATCTATAG,0.0164
5,CTGATCCA,0.0536
6,ACATCAAG,0.0394
7,ATCGCTAC,0.0212
8,AGTTACCG,0.101
9,ACGGTATG,0.015
10,TGAACCAA,0.218
11,AAATCAAA,0.189
12,AGTTTGTC,0.086
13,CATATTCG,0.129
14,GTAGACAA,-0.0874
15,GCGTATAA,0.00384
16,TCGAACAA,0.24
17,CTGGCTCA,0.0881
18,CGTGGGAC,0.0724
19,AATATAGG,0.123
20,CTCCACGA,-0.0309
21,GAATTGAC,-0.0429
22,ATGCCTTG,-0.162

# Looked up one by one from the list above (4):
row,Sequence,PBM E-score
20,GGACCTCC,-0.175
7,ATCGCTAC,0.0212
16,TCGAACAA,0.24
18,CCCTAACG,0.0377
